Measured values as given in paper doi:10.1101/2025.10.13.682107, “Oxidative stress sensing by the translation elongation machinery promotes production of detoxifying selenoproteins” (bioRxiv, 2025).
These are yes or no findings as the source states them, for the method shown. For some of these results: In cells and extracts the contact can be indirect. Some results given as binding are weak or reduced against the parent protein; the word gives no strength.

Sequences of proteins named here, by UniProt entry; tags and fusion partners are left off.
UniProt P26641: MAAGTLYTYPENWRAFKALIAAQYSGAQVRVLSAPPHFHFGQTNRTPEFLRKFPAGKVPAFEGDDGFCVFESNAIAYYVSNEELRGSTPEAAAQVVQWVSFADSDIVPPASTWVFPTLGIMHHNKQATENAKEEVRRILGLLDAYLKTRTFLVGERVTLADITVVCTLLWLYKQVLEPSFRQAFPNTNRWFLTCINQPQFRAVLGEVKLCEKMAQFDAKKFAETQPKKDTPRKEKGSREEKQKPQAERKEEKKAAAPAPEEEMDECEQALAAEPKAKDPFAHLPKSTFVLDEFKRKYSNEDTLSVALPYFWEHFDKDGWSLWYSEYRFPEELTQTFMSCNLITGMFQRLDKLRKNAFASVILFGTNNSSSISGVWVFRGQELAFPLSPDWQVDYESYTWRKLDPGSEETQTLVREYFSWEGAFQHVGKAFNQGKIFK

Columns and labels:
[1] = molecular target: 3XFLAG-tagged EEF1D, wild type (human (cDNA from HCT116)) (UniProt P29692); experiment: co-IP; 3XFLAG immunoprecipitation (FLAG-M2 antibody on Protein G Dynabeads) from HEK293T lysate, 2 h at 4 °C; Co-IP lysis buffer with 0.5% Triton X-100, 150 mM KOAc, pH 7.4
[2] = molecular target: endogenously Strep-tagged EEF1G (human (endogenous in HEK293T)) (UniProt P26641); experiment: pull-down; StreptactinXT affinity purification of endogenous Twin-Strep-tagged EEF1G from HEK293T lysate, 2 h at 4 °C; eluted with 20 mM biotin
[3] = molecular target: endogenously Strep-tagged EEF1G (human (endogenous in HEK293T)) (UniProt P26641); experiment: condition: only with 1 mM oxidized glutathione (GSSG); mass photometry; purified EEF1H (co-purified from HEK293T through strep-EEF1G) incubated with 1 mM oxidized glutathione (GSSG) before measurement
[4] = molecular target: endogenously Strep-tagged EEF1G (human (endogenous in HEK293T)) (UniProt P26641); experiment: pull-down; strep-EEF1G pulldown from HEK293T cells in the presence of 1 mM reduced glutathione (GSH); western blot
[5] = molecular target: EEF1G (eukaryotic elongation factor 1 subunit gamma), endogenous (human (endogenous in HEK293T)) (UniProt P26641); experiment: pull-down; Glutathione Sepharose 4B incubated with HEK293T lysate, 2 h at 4 °C; eluted with 10 mM reduced glutathione; recovered proteins seen by Coomassie staining and western blot; EEF1G held by its ligand glutathione

Molecule | binding [1] | binding [2] | binding [3] | binding [4] | binding [5]
EEF1G (eukaryotic elongation factor 1 subunit gamma), endogenous (from UniProt P26641 1-437) | binds |  |  |  | 
EEF1D, endogenous (natural protein, human (endogenous in HEK293T), UniProt P29692 1-281, looked up, EEF1D (guanine nucleotide exchange factor subunit of EEF1H), human, endogenous in HEK293T; source: endogenous, HEK293T lysate) MATNFLAHEKIWFDKFKYDDAERRFYEQMNGPVAGASRQENGASVILRDIARARENIQKSLAGSSGPGASSGTSGDHGELVVRIASLEVENQSLRGVVQELQQAISKLEARLNVLEKSSPGHRATAPQTQHVSPMRQVEPPAKKPATPAEDDEDDDIDLFGSDNEEEDKEAAQLREERLRQYAEKKAKKPALVAKSSILLDVKPWDDETDMAQLEACVRSIQLDGLVWGASKLVPVGYGIRKLQIQCVVEDDKVGTDLLEEEITKFEEHVQSVDIAAFNKI |  | binds | no binding | binds | 
EEF1B, endogenous (natural protein, human (endogenous in HEK293T), UniProt P24534 1-225, looked up, EEF1B (guanine nucleotide exchange factor subunit of EEF1H), human, endogenous in HEK293T; source: endogenous, HEK293T lysate) MGFGDLKSPAGLQVLNDYLADKSYIEGYVPSQADVAVFEAVSSPPPADLCHALRWYNHIKSYEKEKASLPGVKKALGKYGPADVEDTTGSGATDSKDDDDIDLFGSDDEEESEEAKRLREERLAQYESKKAKKPALVAKSSILLDVKPWDDETDMAKLEECVRSIQADGLVWGSSKLVPVGYGIKKLQIQCVVEDDKVGTDMLEEQITAFEDYVQSMDVAAFNKI |  | binds |  |  | binds
valine tRNA synthase (VARS), endogenous (enzyme, human (endogenous in HEK293T), UniProt P26640 1-1264, looked up, valine tRNA synthase (VARS), human, endogenous in HEK293T; source: endogenous, HEK293T lysate) MSTLYVSPHPDAFPSLRALIAARYGEAGEGPGWGGAHPRICLQPPPTSRTPFPPPRLPALEQGPGGLWVWGATAVAQLLWPAGLGGPGGSRAAVLVQQWVSYADTELIPAACGATLPALGLRSSAQDPQAVLGALGRALSPLEEWLRLHTYLAGEAPTLADLAAVTALLLPFRYVLDPPARRIWNNVTRWFVTCVRQPEFRAVLGEVVLYSGARPLSHQPGPEAPALPKTAAQLKKEAKKREKLEKFQQKQKIQQQQPPPGEKKPKPEKREKRDPGVITYDLPTPPGEKKDVSGPMPDSYSPRYVEAAWYPWWEQQGFFKPEYGRPNVSAANPRGVFMMCIPPPNVTGSLHLGHALTNAIQDSLTRWHRMRGETTLWNPGCDHAGIATQVVVEKKLWREQGLSRHQLGREAFLQEVWKWKEEKGDRIYHQLKKLGSSLDWDRACFTMDPKLSAAVTEAFVRLHEEGIIYRSTRLVNWSCTLNSAISDIEVDKKELTGRTLLSVPGYKEKVEFGVLVSFAYKVQGSDSDEEVVVATTRIETMLGDVAVAVHPKDTRYQHLKGKNVIHPFLSRSLPIVFDEFVDMDFGTGAVKITPAHDQNDYEVGQRHGLEAISIMDSRGALINVPPPFLGLPRFEARKAVLVALKERGLFRGIEDNPMVVPLCNRSKDVVEPLLRPQWYVRCGEMAQAASAAVTRGDLRILPEAHQRTWHAWMDNIREWCISRQLWWGHRIPAYFVTVSDPAVPPGEDPDGRYWVSGRNEAEAREKAAKEFGVSPDKISLQQDEDVLDTWFSSGLFPLSILGWPNQSEDLSVFYPGTLLETGHDILFFWVARMVMLGLKLTGRLPFREVYLHAIVRDAHGRKMSKSLGNVIDPLDVIYGISLQGLHNQLLNSNLDPSEVEKAKEGQKADFPAGIPECGTDALRFGLCAYMSQGRDINLDVNRILGYRHFCNKLWNATKFALRGLGKGFVPSPTSQPGGHESLVDRWIRSRLTEAVRLSNQGFQAYDFPAVTTAQYSFWLYELCDVYLECLKPVLNGVDQVAAECARQTLYTCLDVGLRLLSPFMPFVTEELFQRLPRRMPQAPPSLCVTPYPEPSECSWKDPEAEAALELALSITRAVRSLRADYNLTRIRPDCFLEVADEATGALASAVSGYVQALASAGVVAVLALGAPAPQGCAVALASDRCSIHLQLQGLVDPARELGKLQAKRVEAQRQAQRLRERRAASGYPVKVPLEVQEADEAKLQQTEAELRKVDEAIALFQKML |  | binds |  |  | 
